# The whole screen tested about 580,000 compounds, of which about 6,100 (1.1%) were called active. Inconclusive means that the source gave no clear call. Such entries were picked first, then a sample of the others. The call rests on the fitted dose curve; in most records, active means well fitted inhibition curve with a large enough effect; inconclusive means small, poorly fitted or top-dose-only effect, or another doubt; inactive means no such curve, though single readings can be large or run the other way. A potency beside an inconclusive call is a rough fit, not a confirmed value.
# Protein sequences, listed by entry. Tags and fused reporters are not part of them. Lines headed by an entry give the natural chain unless they say otherwise; changes in a name come on top.
# UniProt P18054: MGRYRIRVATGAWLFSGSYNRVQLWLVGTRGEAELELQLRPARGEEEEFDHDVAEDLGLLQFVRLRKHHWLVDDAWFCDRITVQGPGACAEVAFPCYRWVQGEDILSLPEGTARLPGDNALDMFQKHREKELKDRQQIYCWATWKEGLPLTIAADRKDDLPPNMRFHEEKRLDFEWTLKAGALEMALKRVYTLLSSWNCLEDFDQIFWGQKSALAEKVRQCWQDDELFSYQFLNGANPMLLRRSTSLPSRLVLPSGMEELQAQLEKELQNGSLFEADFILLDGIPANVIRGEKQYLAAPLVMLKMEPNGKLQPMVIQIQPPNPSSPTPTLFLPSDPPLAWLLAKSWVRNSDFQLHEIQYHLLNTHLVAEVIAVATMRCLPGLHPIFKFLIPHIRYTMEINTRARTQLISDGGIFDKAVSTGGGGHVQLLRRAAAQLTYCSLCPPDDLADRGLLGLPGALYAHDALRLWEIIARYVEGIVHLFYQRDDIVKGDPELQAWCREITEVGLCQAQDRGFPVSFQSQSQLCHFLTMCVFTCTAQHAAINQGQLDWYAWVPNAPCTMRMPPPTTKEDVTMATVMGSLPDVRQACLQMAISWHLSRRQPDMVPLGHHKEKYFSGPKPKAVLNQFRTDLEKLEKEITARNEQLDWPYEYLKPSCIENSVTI
# Target: Polyunsaturated fatty acid lipoxygenase ALOX12 (Homo sapiens) (UniProt P18054)
# Test: Primary qHTS assay for inhibitors of human arachidonate 12S-lipoxygenase (ALOX12): Round 2
# Settings: purified 12hLO, xylenol orange hydroperoxide absorbance; activity change, negative = inhibition: at 108 µM (top of the series) unless noted
# Method in brief: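 Purified human 12hLO (150 nM final) in 25 mM Hepes, 0.01% Triton X-100, pH 7.0 was preincubated 15 min at room temperature with compound. Then 40 uM arachidonic acid was added, 30 min. Hydroperoxide was read by Fe-XO absorbance ratio 573/405 nm.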
# On the % scale 0 is the no-effect control and ±100 the full control effect; potency means the concentration at half of the fitted maximal effect.
Compound,Potency,"activity change, negative = inhibition"
Cc1cccn2c(=O)c(/C=C(\C#N)c3nc4ccccc4s3)c(Oc3ccc(F)cc3)nc12,"inconclusive: 8.91 µM [inhibitor, partial curve, poor fit]",–
CS(=O)(=O)c1ccc(NC(=O)c2cccc(S(=O)(=O)N3CCN(Cc4ccccc4)CC3)c2)cc1,–,inactive: 0%
Cc1ccc(S(=O)(=O)N2CCN(Cc3cc(C(C)(C)C)ccc3O)CC2)cc1,"inconclusive: 4.47 µM [inhibitor, full curve, poor fit]",–
COc1ccc(CNC(=O)c2cnc3sc(N4CCCC4)nn3c2=O)c(OC)c1,–,inactive: -3.26%
Cc1cc(C(=O)NCCC2=CCCCC2)c(C)o1,"inconclusive: 39.8 µM [inhibitor, partial curve, poor fit]",–
O=C(CN1CCN(C(=O)c2ccco2)CC1)Nc1c2c(nc3c1CCC3)CCCC2,"inconclusive: 0.355 µM [inhibitor, full curve, poor fit]",–
COc1ccc(-c2nc3ncccc3[nH]2)cc1,"inconclusive: 44.7 µM [inhibitor, full curve]",–
O=C1CCSC2=C1SCc1sccc12,"inconclusive: 50.1 µM [inhibitor, partial curve, poor fit]",–
CCOc1ccc(NC(=O)CN(C)C(=O)c2cc([N+](=O)[O-])ccc2N2CCCCC2)cc1OCC,"inconclusive: 56.2 µM [inhibitor, partial curve, poor fit]",–
COCc1cc(N2CCN(C(=O)OC(C)(C)C)C[C@H]2C)ccc1N1CC[C@@H](O)C1,"inconclusive: 56.2 µM [inhibitor, partial curve, poor fit]",–
Cc1cc(CNC(=O)CC2C(=O)NCCN2CC(c2ccccc2)c2ccccc2)on1 (stereo unspecified),"inconclusive: 44.7 µM [inhibitor, partial curve, poor fit]",–
O=C(Nc1cccc2ccccc12)C1CCCCC1,"inconclusive: 50.1 µM [inhibitor, partial curve, poor fit]",–
C=CCn1c(SCC(=O)c2[nH]c(C)c(C(=O)OCC)c2C)nc2scc(-c3ccc(OC)cc3)c2c1=O,"inconclusive: 5.62 µM [inhibitor, full curve, poor fit]",–
CCOC(=O)Nc1cccc(Cl)c1C,–,inactive: -14.6%
CCCn1c(=O)c2c(nc3n2CCCN3CCc2ccc(OC)c(OC)c2)n(C)c1=O,"inconclusive: 112 µM [inhibitor, partial curve, poor fit]",–
N#Cc1c(-c2ccc(Cl)cc2)c2c([nH]c1=S)CCCC2,"inconclusive: 31.6 µM [inhibitor, partial curve]",–
COc1ccc(OC)c(CN(CC(C)C)S(=O)(=O)c2ccccc2Br)c1,–,inactive: 85.5%
CCCNC(=O)C1(C)CCN(Cc2cc(C(F)(F)F)ccc2Cl)C1 (stereo unspecified),–,inactive: -6.48%
COc1ccc(N(Cc2cccs2)C(=O)Nc2cccc(Cl)c2)cc1,active: 15.8 µM,–
O=C(Nc1nc(=S)ss1)c1c(F)cccc1F,"inconclusive: 3.98 µM [inhibitor, full curve, poor fit]",–
CCn1cc(C(=O)n2nc(C)cc2C)c(S(=O)(=O)N2CCN(c3cccc(Cl)c3)CC2)n1,"inconclusive: 31.6 µM [inhibitor, partial curve, poor fit]",–
CC(NC(=O)C(C)N1CCN(Cc2ccccc2)CC1)c1ccccc1 (stereo unspecified),–,inactive: -12%

Compound,Potency,"activity change, negative = inhibition"
Cc1ccc(C2=NCC(C)n3nc4cc(C(F)(F)F)ccc4c32)cc1 (stereo unspecified),"inconclusive: 56.2 µM [inhibitor, partial curve, poor fit]",–
Cc1ccc(C)c(NC(=O)CSc2nc3c(c(=O)n2C)SC(C)C3)c1 (stereo unspecified),"inconclusive: 50.1 µM [inhibitor, partial curve, poor fit]",–
Cc1ccoc1C(=O)Nc1cccc2ccccc12,"inconclusive: 141 µM [inhibitor, partial curve, poor fit]",–
Clc1ccc2nc(-c3cccc(Br)c3)cn2c1,active: 12.6 µM,–
Cc1ccccc1NC(=O)CCN1C(=O)c2ccccc2Sc2ncccc21,–,inactive: -5.87%
FC(F)(F)c1cccc(N2CCN(CC3CC4C=CC3C4)CC2)c1 (stereo unspecified),"inconclusive: 35.5 µM [inhibitor, partial curve, poor fit]",–
CCn1nnnc1SCC(=O)Nc1ccc(OCc2ccccc2)cc1,"inconclusive: 31.6 µM [inhibitor, partial curve, poor fit]",–
CC(C(=O)Nc1ccc(Cl)cc1)N(C)Cc1cccs1 (stereo unspecified),"inconclusive: 100 µM [inhibitor, partial curve, poor fit]",–
CCN(CC)CCOC(=O)c1c(C)n(C)c2ccc(OC)cc12,"inconclusive: 10 µM [inhibitor, partial curve, poor fit]",–
COc1ccc(-c2cn3c(n2)sc2cc(C(=O)NCc4cccc(F)c4)ccc23)cc1,"inconclusive: 112 µM [inhibitor, partial curve, poor fit]",–
CC(C)(C)c1ccc(NC(=O)NC2CCCc3ccccc32)cc1 (stereo unspecified),–,inactive: 129%
O=C(O)c1c[nH]c2ccc(Br)cc12,"inconclusive: 28.2 µM [inhibitor, partial curve, poor fit]",–
O=C(CCC1N=C2c3ccccc3N=C(SCc3ccccc3Cl)N2C1=O)NCc1ccco1 (stereo unspecified),–,inactive: 0%
CCOC(=O)C1Oc2ccccc2C(c2cccc3ccccc23)=C1C(=O)OC (stereo unspecified),"inconclusive: 112 µM [inhibitor, single point]",–
CCOCc1nnc(NC(=O)COC)s1,–,inactive: -11.3%
Cc1oc2c(cc(NS(=O)(=O)c3ccc(Cl)cc3)c3ccccc32)c1C(=O)OCc1ccccc1,–,inconclusive: -35.8% [inhibitor]
COc1cc(NC(=O)CCc2ncc(-c3ccc(C)cc3)o2)cc(OC)c1,–,inactive: -70.3%
CCOC1=C2[C@@H](CN(S(=O)(=O)c3ccccc3C)[C@H]2c2ccc(Cl)cc2)[C@H]2C(=O)N(C3CCCCC3)C(=O)[C@H]2C1,"inconclusive: 31.6 µM [inhibitor, partial curve, poor fit]",–
Cc1cc(C(=O)N[C@H](C)c2c(-c3ccc(F)cc3)noc2C(=O)O)c(C)o1,"inconclusive: 10 µM [inhibitor, partial curve]",–
O=C(O)CSCC(=O)N1CCN(c2ncnc3scc(-c4ccccc4)c23)CC1,–,inactive: -3.39%
O=C1NN(c2ccccc2)C(=O)/C1=C\c1ccc2c(c1)OCO2,"inconclusive: 5.62 µM [inhibitor, full curve]",–
COc1ccc(S(=O)(=O)NCCOc2ccccc2)cc1F,"inconclusive: 112 µM [inhibitor, single point]",–

Compound,Potency,"activity change, negative = inhibition"
O=C(O)CCNS(=O)(=O)c1ccc(C(=O)/C=C/c2cccc(Cl)c2)cc1,–,inactive: -24%
CC(=O)Nc1ccc(S(=O)(=O)N[C@H]2CO[C@H]3[C@@H]2OC[C@H]3OC(=O)Nc2ccccc2)cc1,–,inactive: -11.8%
O=[N+]([O-])c1cccc(Cl)c1CSc1ccccn1,"inconclusive: 89.1 µM [inhibitor, partial curve, poor fit]",–
O=C(c1ccccc1)N1Cc2ccccc2NC(=O)C12CCNCC2,"inconclusive: 22.4 µM [inhibitor, full curve]",–
CC(=O)c1sc2ccccc2c1OC(=O)c1ccco1,"inconclusive: 20 µM [inhibitor, partial curve, poor fit]",–
Cc1cccc(C)c1NC(=O)C(c1ccccc1)n1c(=O)c(-c2cc3ccccc3[nH]2)nc2ccccc21 (stereo unspecified),"inconclusive: 89.1 µM [inhibitor, partial curve, poor fit]",–
COc1ccccc1CN(C)C(=O)C(c1ccccc1)c1ccccc1,"inconclusive: 50.1 µM [inhibitor, partial curve, poor fit]",–
CNS(=O)(=O)c1cc(-c2nnc(Nc3ccc(CC(N)=O)cc3)c3ccccc23)ccc1C,"inconclusive: 56.2 µM [inhibitor, partial curve, poor fit]",–
C[C@H]1CN([C@@H](C)CO)C(=O)CCCn2nncc2CO[C@H]1CN(C)C(=O)c1ccccc1,"inconclusive: 89.1 µM [inhibitor, partial curve, poor fit]",–
Cc1noc(C)c1-c1nccc(NCc2ccccc2)n1,"inconclusive: 10 µM [inhibitor, full curve, poor fit]",–
CN(Cc1ccccc1)C1CCNCC1,"inconclusive: 50.1 µM [inhibitor, partial curve, poor fit]",–
Nc1nncn1C(=O)c1cccs1,–,inactive: -1.89% [at 57.4 µM]
CONC(=O)COc1ccc(Nc2ccccc2)cc1,–,inactive: -3.53%
COc1ccccc1CNc1cc(-c2cccc(C#N)c2)ncn1,"inconclusive: 7.94 µM [inhibitor, full curve, poor fit]",–
COc1ccc(NC(=O)c2ccc(NC(=O)c3cccnc3)cc2)cc1,"inconclusive: 89.1 µM [inhibitor, single point]",–
CC(=O)NC(Cc1ccc(O)cc1)C(=O)O (stereo unspecified),"inconclusive: 79.4 µM [inhibitor, partial curve, poor fit]",–
CCN(CC)CCNc1nc(-c2ccc(OC)cc2)c(-c2ccc(OC)cc2)s1,"inconclusive: 39.8 µM [inhibitor, partial curve]",–
C/C(=N/Nc1cccc([N+](=O)[O-])c1)c1ccccn1,–,inactive: -45%
O=C(NC1(C(F)(F)F)Oc2ccccc2O1)N1CCCC1,"inconclusive: 31.6 µM [inhibitor, single point]",–
CCOc1ccc(/C=C/C(=O)c2cc3ccc(OC)cc3oc2=O)cc1OC,"inconclusive: 89.1 µM [inhibitor, partial curve, poor fit]",–
CCn1cc(CN(C)CC2(O)CCCN(Cc3ccc(C(C)C)cc3)C2=O)cn1 (stereo unspecified),–,inactive: 29%
CCOC(=O)C1=C(CN2CCN(Cc3ccccc3)CC2)NC(=O)NC1c1ccccc1 (stereo unspecified),"inconclusive: 31.6 µM [inhibitor, partial curve, poor fit]",–

# Reference: PubChem BioAssay AID1671190 (National Center for Advancing Translational Sciences (NCATS), 2021)
